The target of this assay is CXCR4 on the surface of mouse AB1 malignant mesothelioma cells (mouse (endogenous in AB1)) (UniProt P70658). The assay can be described thus: proximity ligation; endogenous HMGB1 and CXCL12 on the surface of fixed AB1 cells (anti-HMGB1 + anti-CXCL12); cells untreated, treated 1 h at 37 °C with AMD3100 or Ac-pep (10, 30, 100 nM), or Cxcr4 knockout.

By UniProt entry, the sequences of proteins in these tests, tags left out. Where a name states a change or a piece, a line headed by the entry shows the natural chain unless it says otherwise.
UniProt P70658: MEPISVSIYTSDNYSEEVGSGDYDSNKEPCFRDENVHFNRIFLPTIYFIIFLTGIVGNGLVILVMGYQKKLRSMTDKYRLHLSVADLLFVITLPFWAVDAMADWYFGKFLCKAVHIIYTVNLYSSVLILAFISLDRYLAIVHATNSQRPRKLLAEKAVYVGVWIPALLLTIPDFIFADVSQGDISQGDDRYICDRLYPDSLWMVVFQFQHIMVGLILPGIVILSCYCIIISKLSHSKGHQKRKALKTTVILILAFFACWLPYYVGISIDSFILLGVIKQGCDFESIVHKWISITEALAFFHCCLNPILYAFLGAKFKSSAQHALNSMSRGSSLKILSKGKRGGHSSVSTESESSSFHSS
UniProt P63158: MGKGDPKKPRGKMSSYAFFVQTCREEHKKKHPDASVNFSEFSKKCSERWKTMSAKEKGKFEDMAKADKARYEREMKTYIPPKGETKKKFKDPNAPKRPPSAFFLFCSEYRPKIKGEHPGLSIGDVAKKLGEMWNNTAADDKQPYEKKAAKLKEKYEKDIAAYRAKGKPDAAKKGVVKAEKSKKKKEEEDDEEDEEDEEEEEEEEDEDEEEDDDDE

Results are given in words; binding and its absence hold for the method and conditions named. In cells and extracts the contact can be indirect. Some entries that bind do so weakly or less than the wild type.

For the substance “endogenous HMGB1•CXCL12 heterocomplex on the surface of AB1 cells (from UniProt P63158 1-215; P40224 22-93)”, the binding entry is “binds”.
